Assay results published in US12157773 (SYNTHEKINE, dated 2024).
These are yes or no findings as the source states them, for the method shown. Some binding calls cover weakened binding; strength is not graded here. Where a sequence is shown, tags or fusion partners need not be part of it.

By UniProt entry, the sequences of proteins in these tests, tags left out. Where a name states a change or a piece, a line headed by the entry shows the natural chain unless it says otherwise.
UniProt Q6UWB1: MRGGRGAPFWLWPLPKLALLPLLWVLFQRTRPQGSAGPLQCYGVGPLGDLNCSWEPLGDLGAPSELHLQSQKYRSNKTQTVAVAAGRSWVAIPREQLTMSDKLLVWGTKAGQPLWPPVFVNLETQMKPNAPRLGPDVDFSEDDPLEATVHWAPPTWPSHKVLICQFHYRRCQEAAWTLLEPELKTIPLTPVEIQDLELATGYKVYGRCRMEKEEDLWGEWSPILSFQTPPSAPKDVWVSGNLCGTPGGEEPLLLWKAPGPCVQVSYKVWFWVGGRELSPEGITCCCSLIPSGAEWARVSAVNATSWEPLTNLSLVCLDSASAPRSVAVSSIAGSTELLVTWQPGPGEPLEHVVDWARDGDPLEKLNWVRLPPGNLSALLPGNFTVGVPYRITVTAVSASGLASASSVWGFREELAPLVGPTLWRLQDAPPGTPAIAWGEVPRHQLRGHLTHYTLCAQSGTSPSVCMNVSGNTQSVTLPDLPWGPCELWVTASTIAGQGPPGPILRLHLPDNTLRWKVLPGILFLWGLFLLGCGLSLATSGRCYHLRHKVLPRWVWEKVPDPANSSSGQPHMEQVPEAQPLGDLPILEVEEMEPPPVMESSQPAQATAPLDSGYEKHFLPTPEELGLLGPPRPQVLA

B1: hIL27R VHH1 Mono-Fc VHH (Fc fusion, not shown: a dimerising Fc or GST)
chain: QVQLQESGGGLVQPGGSLRLSCAASGFTFSSYPMSWVRQAPGKGLEWISTISAGGDTTLYADSVKGRFTSSRDNAKNTLYLQLNSLKTEDAAIYYCAKRIDCNSGYCYRRNYWGQGTQVTVSS
B2: hIL27R VHH15 Mono-Fc VHH (Fc fusion, not shown: a dimerising Fc or GST)
chain: QVQLQESGGGSVQAGGSLRLSCVASGYVSCDYFLPSWYRQAPGKEREFVSIIDGTGSTSYAASVKGRFTASQDKGKNIAYLQMNTLKPEDTAMYYCKASCVRGRAISEYWGQGTQVTVSS
B3: hIL27R VHH9 Mono-Fc VHH (Fc fusion, not shown: a dimerising Fc or GST)
chain: QVQLQESGGGSVQSGGSLRLSCAASGFTYSTSNSWMAWFRQAPGKEREGVAAIYTVGGSIFYADSVRGRFTISQDATKNMFYLQMNTLKPEDTAMYYCAAASGRLRGKWFWPYEYNYWGQGTQVTVSS
B4: hIL27R VHH19 Mono-Fc VHH (Fc fusion, not shown: a dimerising Fc or GST)
chain: QVQLQESGGGSVQAGGSLRLSCRASGSTYSNYCLGWFRQITGKEREGVAVINWVGGMLYFADSVKGRFTVSQDQAKNTVYLQMNSLKPEDTAMYYCAAESVSSFSCGGWLTRPDRVPYWGQGTQVTVSS
B5: hIL27R VHH21 Mono-Fc VHH (Fc fusion, not shown: a dimerising Fc or GST)
chain: QVQLQESGGGLVQPGGSLRLSCAASGFTFSLSSMSWVRQAPGKGLEWVSAISSGGASTYYTDSVKGRFTISRDNAKNMLYLQLNSLKTEDTAMYYCAKGGSGYGDASRMTSPGSQGTQVTVSS

Each binder was assayed against hIL27Ra-his (Origene, Catalog# TP307012) (human) (UniProt Q6UWB1) (assay: SPR, Mono-Fc VHH on Protein A chip).
For B1, the binding was “binds”.
For B2, the binding was “binds”.
B3 was tested, and the binding was “binds”.
With B4 the binding was “binds”.
For B5, the binding was “binds”.
